Patent US12714708B2, “Compounds with anti-tumor activity against cancer cells bearing HER2 exon 19 mutations” (Board of Regents, The University of Texas System, priority 2019, dated 2026)
At least one compound was matched to its structure with a doubt left. Some results were stated once for a whole list of compounds, not compound by compound.

Experiments:
[1] = system: CW-2 cells (HER2 L755S) xenografts; assay: CW-2 cell line xenograft tumor growth study; assay type: in vivo, mice; conditions: Poziotinib 5 mg/kg, Afatinib 20 mg/kg
Procedure: In vivo xenograft studies: CW-2 cell line xenografts were created by injecting 1×10^6 cells in 50% matrigel into 6-week-old female nu/nu nude mice. When tumors reached 350 mm^3 mice were randomized into 4 groups: 20 mg/kg afatinib, 5 mg/kg poziotinib, 30 mg/kg neratinib, or vehicle control (0.5% Methylcellulose, 2% Tween-80 in dH2O). Tumor volumes were measured three times per week. Mice received drug Monday-Friday (5 days per week), but began dosing on Wednesday allowing for a 2-day holiday after the first 3 days of dosing.

[2] = system: HER2 mutated non-small cell lung cancer (NSCLC); conditions: cited from earlier work
[3] = system: Ba/F3 HER2 L755P mutant cells; assay: Cell Titer Glo cell viability, Ba/F3 cells expressing HER2 L755P; assay type: cell-based; conditions: Ba/F3 cells expressing HER2 L755P protein
Procedure: Ba/F3 cells expressing exon 19 point mutation L755P were generated.
Cell line generation and IL-3 deprivation: Ba/F3 cell line, was cultured in complete RPMI-1640 (R8758; Sigma Life Science) media supplemented with L-glutamine, 10% heat inactivated FBS (Gibco), 1% penicillin/streptomycin (Sigma Life Science), and 10 ng/ml mouse IL-3 (R&D systems) under sterile conditions. Stable cell lines were generated by retroviral transduction of Ba/F3 cell line for 12 hours. Retroviruses were generated by transfecting pBabe-Puro based vectors into the Phoenix 293T ampho packing cell line (Orbigen) using Lipofectamine 2000 (Invitrogen). 72 hours after transduction, 2 μg/ml puromycin (Invitrogen) was added to the media. After 5 days of selection, cells were stained with FITC-HER2 (Biolegend) and sorted via FACS. Cell lines were then grown in the absence of IL-3 for 15 days and cell viability was determined every 3 days using the Cell Titer Glo assay (Progema). Resulting stable cell lines were maintained in complete RPMI-1640 media described above without IL-3. […]
Cell viability assay and IC50 estimation: Cell viability was determined using the Cell Titer Glo assay (Promega) as previously described (Robichaux et al., 2018). […] Plates were shaken for 15 minutes, and bioluminescence was determined using a FLUOstar OPTIMA multi-mode micro-plate reader (BMG LABTECH). […]

Structure (SMILES)	Tukey's multiple comparisons test Summary ([1]; Day 10, vs. Neratinib (30 mg/kg))	Tukey's multiple comparisons test Summary ([1]; Day 10, vs. Vehicle, Neratinib 30 mg/kg, two-way ANOVA of FIG. 6B)	Tukey's multiple comparisons test Summary ([1]; Day 13, vs. Neratinib (30 mg/kg))	Tukey's multiple comparisons test Summary ([1]; Day 13, vs. Vehicle, Neratinib 30 mg/kg, two-way ANOVA of FIG. 6B)	Tukey's multiple comparisons test Summary ([1]; Day 15, vs. Vehicle, Neratinib 30 mg/kg, two-way ANOVA of FIG. 6B)	Tukey's multiple comparisons test Summary ([1]; Day 17, vs. Vehicle, Neratinib 30 mg/kg, two-way ANOVA of FIG. 6B)	Tukey's multiple comparisons test Summary ([1]; Day 20, vs. Vehicle, Neratinib 30 mg/kg, two-way ANOVA of FIG. 6B)	Tukey's multiple comparisons test Summary ([1]; Day 21, vs. Vehicle, Neratinib 30 mg/kg, two-way ANOVA of FIG. 6B)	objective response rates [2]	inhibition of cell viability [3]
CN(C)C/C=C/C(=O)Nc1cc2c(Nc3ccc(F)c(Cl)c3)ncnc2cc1O[C@H]1CCOC1 [afatinib]	ns	ns	ns	ns	ns	ns	ns	ns	less than 30%	–
COc1cc2ncnc(Nc3ccc(F)c(Cl)c3)c2cc1NC(=O)/C=C/CN1CCCCC1 [dacomitinib]	–	–	–	–	–	–	–	–	less than 30%	–
C=CC(=O)N1CCC[C@@H](n2nc(-c3ccc(Oc4ccccc4)cc3)c3c(N)ncnc32)C1 [ibrutinib]	–	–	–	–	–	–	–	–	–	failed to inhibit cell viability
